Measurements from US7208311B2, “Catalytic domain of ADAM33 and methods of use thereof” (Schering Corporation, priority 2002, dated 2007).
Not every detail of the peptide structures is certain; ends, links or a residue may be inferred. Ends that are not written are not given here.

Target: T1, ADAM33 (Homo sapiens, UniProt Q9BZ11)
T1 construct: made in house; host or cells: Drosophila melanogaster S2 cells
T1 sequence (Q9BZ11 204-409 limits assumed): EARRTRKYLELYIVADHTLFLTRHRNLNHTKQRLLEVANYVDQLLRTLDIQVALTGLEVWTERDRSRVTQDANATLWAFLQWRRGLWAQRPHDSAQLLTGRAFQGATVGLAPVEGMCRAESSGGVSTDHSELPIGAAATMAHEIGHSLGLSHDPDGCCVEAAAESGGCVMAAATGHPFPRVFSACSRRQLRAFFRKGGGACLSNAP
Experiment: HPLC peptide substrate cleavage assay with ADAM33
Type: biochemical
Details: for cleavage site of peptide: identified by MALDI-TOF MS; for cleavage of peptide by ADAM33: peptide 50 μM, ADAM33 0.1–0.5 μM, 2 h RT
Procedure: The peptide substrate (50 μM) was incubated with or without ADAM33 (0.1–0.5 μM) in assay buffer (20 mM HEPES, pH 7.5, 0.5 M NaCl, 0.2 mg/ml bovine serum albumin (BSA)) for 2 hours (h) at room temperature (RT) in the presence or absence of various inhibitors [5 mM 1, 10-phenanthroline, or a protease inhibitor cocktail (2 μg/ml leupeptin, 0.4 μM benzamidine, 10 μg/ml soybean trypsin inhibitor and 0.5 mM iodoacetamide)]. The reaction was stopped by adding 10% trifluoroacetic acid (TFA) to a final concentration of 1% and samples were analyzed on Agilent HPLC model 1100 with C8 column. Solvents were: A, 0.1% TFA in water; B, 0.09% TFA in acetonitrile. A linear gradient from 2 to 42% B was run over 7 min at 1.5 ml/min and the eluate was monitored at 214 nm. The percentage of peptide cleavage was calculated using the peak area of the cleaved products divided by the sum of the peak areas of both the products and the remaining substrate. The cleavage sites of the peptide were identified by matrix-assisted laser-desorption/ionization time-of-flight (MALDI-TOF) mass spectrometry.
Specificity constants of peptide substrates, APP and KL-1, were obtained by using the HPLC assay described above. In brief, ADAM33cat (80 nM) was incubated with peptide substrate (30–2000 μM) in assay buffer for 10–60 min at RT. Reactions were timed to allow less than 15% turnover of the substrate. The initial cleavage velocities of the peptides were obtained by plotting cleaved product versus reaction time. The specificity constants, kcat/Km, were determined based on best fit of the data with the Michaelis-Menten equation when substrate concentration S<<Km.

## YEVHHQKLVF [APP]
  cleavage site of peptide: H*Q
  cleavage of peptide by ADAM33: cleaved

## PPVAASSLRN [KL-1]
  cleavage site of peptide: A*S
  cleavage of peptide by ADAM33: cleaved
